In the supplement of paper PMC12889115:
This is one part of the list. Values are raw readings; no control value is given beside them.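 Primary screen: polymyxin B was added at a level permeabilizing Salmonella outer membranes while sparing inner membranes. DMSO wells, both with and without polymyxin B, established maximum growth. Plate-to-plate variation meant each plate was ranked on its own, and the lowest-OD600 compounds were selected as hits.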

Test system: Salmonella enterica serovar Typhimurium SL1344
Assay: bacterial growth OD600 after 18 h with compound and polymyxin B; higher = more bacterial growth (less inhibition)
Conditions: 50 µM, Mueller-Hinton broth

SMILES | bacterial growth OD600 (polymyxin B 1 µg/mL) | bacterial growth OD600 (polymyxin B 0.75 µg/mL)
COc1ccc(OC2CCN(C(=O)C3CC3)CC2)c(C(=O)NCCc2cscn2)c1 | 0.612 | 
Cc1ccccc1C1(CC(=O)N2CCN(C3CCCC3)CC2)CC(=O)N(Cc2ccncc2)C1=O (configuration not stated) |  | 0.712
COc1ccc(C(=O)N2CCCC2)c(OC2CCN(Cc3ccc(F)cc3)CC2)c1 |  | 0.692
CCOC(=O)C1(Cc2cccc(Cl)c2)CCCN(C(=O)NC(C)C)C1 (configuration not stated) | 0.778 | 
Cc1n[nH]c(C)c1S(=O)(=O)N1CCC(C2CCN(CC(C)C)CC2)C1 (configuration not stated) |  | 0.897
Cc1cnc(CNc2ccc(-c3nc(C(C)C)no3)cn2)cn1 | 0.982 | 
CN(C(=O)CCN1Cc2ccccc2C1=O)C1CCCN(CCc2ccccc2)C1 (configuration not stated) | 0.967 | 
O=C(c1cccc(Cl)c1)N1CCC2(CCCN(CC3CC3)C2=O)C1 (configuration not stated) | 0.923 | 
CCN(Cc1nc2ccccc2nc1C)CC1CCCN(CCc2cccc(OC)c2)C1 (configuration not stated) |  | 0.969
Cn1c(C2CCC2)nc2cc(C(=O)NC3Cc4ccccc4C3)cc(NC(=O)C3CCCO3)c21 (configuration not stated) |  | 0.851
CSCC(=O)N1CCC2(CCCN(Cc3ccc(F)cc3)C2=O)C1 (configuration not stated) | 0.959 | 
CN(CCc1ccccc1)C1CCCN(Cc2ccc(O)c(Cl)c2)C1 (configuration not stated) | 0.893 | 
CCN(Cc1ccccc1)C(=O)c1ccc(OC2CCN(C(=O)C3CC3)CC2)cc1 | 0.895 | 
CC(C)C(=O)N1CCCC(N2CCN(c3cccc(C(F)(F)F)c3)CC2)C1 (configuration not stated) | 0.926 | 
CCn1nc(C)c(CN2CCC(C(Cc3ccccc3Cl)N(C)C(=O)c3ccco3)CC2)c1C (configuration not stated) |  | 0.838
Cc1ccc(CCNC(=O)C2CCC(=O)N(CC3CCCCC3)C2)s1 (configuration not stated) | 0.83 | 

Pulled by structure from the list above, 2 records:
SMILES | bacterial growth OD600 (polymyxin B 1 µg/mL) | bacterial growth OD600 (polymyxin B 0.75 µg/mL)
CN(C(=O)CCN1Cc2ccccc2C1=O)C1CCCN(CCc2ccccc2)C1 (configuration not stated) | 0.967 | 
COc1ccc(OC2CCN(C(=O)C3CC3)CC2)c(C(=O)NCCc2cscn2)c1 | 0.612 | 

Further compounds follow.

SMILES | bacterial growth OD600 (polymyxin B 1 µg/mL) | bacterial growth OD600 (polymyxin B 0.75 µg/mL)
Cc1oc(-c2cc(F)ccc2F)nc1CN1CCN(c2ccccc2)CC1C (configuration not stated) | 0.824 | 
O=C(C1CC12CCCCC2)N1CCc2onc(-c3ccccc3F)c2C1 (configuration not stated) |  | -0.001
COc1cccc(N2CCN(Cc3nc(-c4cc(F)cc(F)c4)oc3C)CC2=O)c1 | 0.727 | 
O=C(CCc1ccco1)NC1CC(=O)N(CCc2ccccc2)C1 (configuration not stated) | 1.13 | 
COc1ccc(OC)c(-c2cc(Cl)c3c(c2)CC(CNC(=O)/C=C/c2cccnc2)O3)c1 (configuration not stated) |  | 0.013
Cc1ccccc1C(=O)N1CCC(C2(c3ccccn3)NC(=O)N(CCc3cccs3)C2=O)CC1 (configuration not stated) |  | 0.813
CCOc1ccc(CN2CCN(Cc3ccc(OC)cc3F)C(CCO)C2)cc1CO (configuration not stated) | 1.08 | 
CC(=O)c1cccc(CN2CCCC(Nc3ccc(F)c(F)c3)C2)c1 (configuration not stated) | 0.657 | 
O=C1CC(CC(=O)N2CCCCC2c2nccs2)(c2ccccc2)C(=O)N1CCc1ccccn1 (configuration not stated) |  | 0.785
Cc1nc(CN2CCN(C(=O)Cn3nnnc3CN3CCC(C)CC3)CC2)cs1 | 0.969 | 
COc1ccc(-c2cn3c(C(=O)NCC(F)(F)F)csc3n2)cc1F |  | 0.003
COc1ncccc1C(=O)NC1CCCc2nc(-c3ccccc3)ncc21 (configuration not stated) | 0.968 | 
COc1ccccc1Oc1ncccc1CNC(=O)c1ccc[n+]([O-])c1 | 1.05 | 
CSCC(=O)N1CCCC(CCc2ccccc2)C1 (configuration not stated) |  | 0.568
O=S(=O)(c1ccc(OC(F)(F)F)cc1)N1CCC(n2c(C3CCCO3)nc3cccnc32)CC1 (configuration not stated) |  | 0.983
CCNC(=O)c1cnn(-c2nccc(-c3cc(C)sc3C)n2)c1C1CC1 |  | 0.858
